The target in this experiment is EZH2-92aa-3×Flag (human) (UniProt Q15910). As to the kind of experiment: co-IP; 293T cells transfected with EZH2-92aa-3xFlag (legend; the text says MES28 GSCs); lysis in weak RIPA buffer; IP with anti-Flag and with anti-FBXW7 overnight at 4 °C, protein A/G agarose beads; washed five times with PBST; immunoblot with anti-Flag or anti-FBXW7. A general note: In western blotting, separated proteins are transferred to a membrane and probed.

The chains behind the UniProt entries cited, without tags or fusion partners. Where a name states a change or a piece, a line headed by the entry shows the natural chain unless it says otherwise. A line that says so, or that is headed by a name, gives the form on record, which may keep a tag or linker.
EZH2-92aa-3×Flag (Q15910, form named): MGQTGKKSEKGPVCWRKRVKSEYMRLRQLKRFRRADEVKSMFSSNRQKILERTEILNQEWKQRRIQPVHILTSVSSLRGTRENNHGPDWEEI
UniProt Q969H0: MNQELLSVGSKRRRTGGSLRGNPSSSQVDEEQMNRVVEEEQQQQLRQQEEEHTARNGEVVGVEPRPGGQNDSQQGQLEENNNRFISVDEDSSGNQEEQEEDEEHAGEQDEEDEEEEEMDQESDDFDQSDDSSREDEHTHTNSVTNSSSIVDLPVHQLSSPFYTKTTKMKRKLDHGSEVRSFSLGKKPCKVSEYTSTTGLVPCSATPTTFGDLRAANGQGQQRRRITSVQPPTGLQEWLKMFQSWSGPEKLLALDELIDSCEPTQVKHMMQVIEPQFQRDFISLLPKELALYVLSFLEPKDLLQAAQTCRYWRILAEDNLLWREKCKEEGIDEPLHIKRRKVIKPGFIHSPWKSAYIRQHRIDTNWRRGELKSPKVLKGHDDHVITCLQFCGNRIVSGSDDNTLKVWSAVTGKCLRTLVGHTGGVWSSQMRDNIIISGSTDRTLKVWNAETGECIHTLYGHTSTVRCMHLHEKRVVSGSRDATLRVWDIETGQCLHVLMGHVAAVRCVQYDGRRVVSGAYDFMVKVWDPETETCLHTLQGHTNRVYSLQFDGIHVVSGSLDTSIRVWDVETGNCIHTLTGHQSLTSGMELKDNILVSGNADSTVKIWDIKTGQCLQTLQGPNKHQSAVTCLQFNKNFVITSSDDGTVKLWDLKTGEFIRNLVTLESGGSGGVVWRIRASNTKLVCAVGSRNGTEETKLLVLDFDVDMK

This note sets out measurements from publication PMC9378736.

These are yes or no findings as the source states them, for the method shown. Binding seen in cells or lysates may run through a third protein. Some results given as binding are weak or reduced against the parent protein; the word gives no strength.

Regarding FBXW7 (from UniProt Q969H0 1-707), the binding entry is recorded as “binds”.
